Measurements: the supplement of paper PMC10849652
Some of the results follow.

Protein sequences, listed by entry. Tags and fused reporters are not part of them. Lines headed by an entry give the natural chain unless they say otherwise; changes in a name come on top.
UniProt O15379: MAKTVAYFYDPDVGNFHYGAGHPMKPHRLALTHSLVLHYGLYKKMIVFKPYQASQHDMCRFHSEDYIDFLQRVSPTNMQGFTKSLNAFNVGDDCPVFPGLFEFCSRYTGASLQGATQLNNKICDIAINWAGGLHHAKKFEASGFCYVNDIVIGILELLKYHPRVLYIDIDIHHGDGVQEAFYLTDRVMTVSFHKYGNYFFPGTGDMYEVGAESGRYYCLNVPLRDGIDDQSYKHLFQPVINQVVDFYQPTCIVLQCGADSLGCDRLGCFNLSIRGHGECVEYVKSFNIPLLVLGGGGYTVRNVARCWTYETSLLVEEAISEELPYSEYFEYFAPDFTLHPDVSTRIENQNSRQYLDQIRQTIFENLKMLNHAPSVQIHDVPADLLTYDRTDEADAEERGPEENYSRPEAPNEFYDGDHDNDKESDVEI
UniProt Q9UBN7: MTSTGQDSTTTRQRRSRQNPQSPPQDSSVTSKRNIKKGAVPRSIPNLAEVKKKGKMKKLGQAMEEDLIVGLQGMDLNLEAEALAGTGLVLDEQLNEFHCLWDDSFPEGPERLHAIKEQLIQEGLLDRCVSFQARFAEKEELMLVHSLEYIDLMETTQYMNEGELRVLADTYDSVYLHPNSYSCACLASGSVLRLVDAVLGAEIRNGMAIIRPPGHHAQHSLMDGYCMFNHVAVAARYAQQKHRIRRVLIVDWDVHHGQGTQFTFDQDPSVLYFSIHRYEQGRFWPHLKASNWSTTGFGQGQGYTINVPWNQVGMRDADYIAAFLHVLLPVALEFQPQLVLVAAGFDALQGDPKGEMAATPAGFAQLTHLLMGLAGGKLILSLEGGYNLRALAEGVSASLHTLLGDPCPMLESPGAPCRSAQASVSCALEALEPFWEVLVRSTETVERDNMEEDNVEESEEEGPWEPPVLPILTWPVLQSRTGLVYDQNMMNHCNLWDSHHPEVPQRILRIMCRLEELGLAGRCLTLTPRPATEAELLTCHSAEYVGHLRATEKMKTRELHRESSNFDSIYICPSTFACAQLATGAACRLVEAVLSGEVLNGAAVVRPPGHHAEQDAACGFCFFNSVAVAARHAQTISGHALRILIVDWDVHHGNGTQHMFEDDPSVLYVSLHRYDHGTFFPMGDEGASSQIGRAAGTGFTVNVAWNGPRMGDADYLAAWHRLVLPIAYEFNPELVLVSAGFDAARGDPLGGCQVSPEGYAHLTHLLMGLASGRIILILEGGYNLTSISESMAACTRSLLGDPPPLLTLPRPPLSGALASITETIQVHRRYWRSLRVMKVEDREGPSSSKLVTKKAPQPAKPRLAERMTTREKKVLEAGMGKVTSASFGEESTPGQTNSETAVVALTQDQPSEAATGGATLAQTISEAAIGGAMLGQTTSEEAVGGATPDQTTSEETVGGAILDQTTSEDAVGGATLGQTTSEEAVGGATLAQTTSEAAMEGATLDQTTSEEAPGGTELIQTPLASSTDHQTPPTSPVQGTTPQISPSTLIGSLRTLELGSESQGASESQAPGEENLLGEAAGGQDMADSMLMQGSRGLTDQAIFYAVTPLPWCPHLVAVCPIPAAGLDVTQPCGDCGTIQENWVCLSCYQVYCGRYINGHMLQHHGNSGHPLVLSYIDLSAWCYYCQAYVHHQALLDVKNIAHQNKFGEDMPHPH
UniProt Q969F1: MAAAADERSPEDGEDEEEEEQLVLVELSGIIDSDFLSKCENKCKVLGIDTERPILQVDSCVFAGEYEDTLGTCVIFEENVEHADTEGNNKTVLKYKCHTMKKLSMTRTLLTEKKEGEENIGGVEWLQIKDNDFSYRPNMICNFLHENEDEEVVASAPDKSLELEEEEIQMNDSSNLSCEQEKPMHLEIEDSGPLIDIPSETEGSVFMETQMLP
UniProt O94927: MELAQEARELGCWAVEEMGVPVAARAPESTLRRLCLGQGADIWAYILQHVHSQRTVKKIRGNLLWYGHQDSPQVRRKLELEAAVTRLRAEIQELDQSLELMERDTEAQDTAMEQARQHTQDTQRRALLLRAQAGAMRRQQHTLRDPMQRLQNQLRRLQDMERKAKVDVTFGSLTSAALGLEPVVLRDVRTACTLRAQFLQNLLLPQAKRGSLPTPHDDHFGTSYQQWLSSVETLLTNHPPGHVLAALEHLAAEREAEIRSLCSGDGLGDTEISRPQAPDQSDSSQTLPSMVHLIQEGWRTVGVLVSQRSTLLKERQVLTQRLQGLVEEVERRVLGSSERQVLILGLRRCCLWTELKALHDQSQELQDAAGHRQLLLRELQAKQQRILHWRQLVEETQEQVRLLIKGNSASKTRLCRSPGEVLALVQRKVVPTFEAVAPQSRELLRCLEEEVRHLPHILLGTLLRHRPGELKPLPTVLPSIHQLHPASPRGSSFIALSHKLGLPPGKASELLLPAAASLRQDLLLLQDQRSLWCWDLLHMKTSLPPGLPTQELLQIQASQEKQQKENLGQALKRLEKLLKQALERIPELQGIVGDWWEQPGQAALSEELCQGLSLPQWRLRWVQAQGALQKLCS
UniProt P09211: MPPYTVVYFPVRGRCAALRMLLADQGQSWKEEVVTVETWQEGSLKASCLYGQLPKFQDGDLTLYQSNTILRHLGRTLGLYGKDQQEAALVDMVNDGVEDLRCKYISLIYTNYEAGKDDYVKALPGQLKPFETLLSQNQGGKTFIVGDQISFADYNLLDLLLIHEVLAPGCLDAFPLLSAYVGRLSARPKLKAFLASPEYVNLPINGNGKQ
UniProt P49841: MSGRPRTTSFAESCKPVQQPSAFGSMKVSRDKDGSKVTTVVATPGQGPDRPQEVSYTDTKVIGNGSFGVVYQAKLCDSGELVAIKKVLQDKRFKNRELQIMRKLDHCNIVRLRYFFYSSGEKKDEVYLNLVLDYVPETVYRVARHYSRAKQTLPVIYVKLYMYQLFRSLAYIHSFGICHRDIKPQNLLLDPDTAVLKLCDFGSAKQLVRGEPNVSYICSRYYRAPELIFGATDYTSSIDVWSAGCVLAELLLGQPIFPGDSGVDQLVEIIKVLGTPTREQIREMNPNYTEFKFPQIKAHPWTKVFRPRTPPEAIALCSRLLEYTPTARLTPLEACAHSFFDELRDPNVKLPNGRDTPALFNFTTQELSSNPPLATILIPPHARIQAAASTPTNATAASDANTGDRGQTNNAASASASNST
UniProt Q6PII5: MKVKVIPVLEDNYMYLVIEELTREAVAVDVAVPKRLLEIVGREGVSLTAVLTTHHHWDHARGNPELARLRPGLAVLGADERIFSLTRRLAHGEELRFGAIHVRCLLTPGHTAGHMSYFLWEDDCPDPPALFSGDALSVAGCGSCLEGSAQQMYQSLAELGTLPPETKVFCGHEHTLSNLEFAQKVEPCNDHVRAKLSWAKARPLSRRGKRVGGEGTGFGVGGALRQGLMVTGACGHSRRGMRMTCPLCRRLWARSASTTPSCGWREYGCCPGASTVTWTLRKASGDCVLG
UniProt Q9BSE4: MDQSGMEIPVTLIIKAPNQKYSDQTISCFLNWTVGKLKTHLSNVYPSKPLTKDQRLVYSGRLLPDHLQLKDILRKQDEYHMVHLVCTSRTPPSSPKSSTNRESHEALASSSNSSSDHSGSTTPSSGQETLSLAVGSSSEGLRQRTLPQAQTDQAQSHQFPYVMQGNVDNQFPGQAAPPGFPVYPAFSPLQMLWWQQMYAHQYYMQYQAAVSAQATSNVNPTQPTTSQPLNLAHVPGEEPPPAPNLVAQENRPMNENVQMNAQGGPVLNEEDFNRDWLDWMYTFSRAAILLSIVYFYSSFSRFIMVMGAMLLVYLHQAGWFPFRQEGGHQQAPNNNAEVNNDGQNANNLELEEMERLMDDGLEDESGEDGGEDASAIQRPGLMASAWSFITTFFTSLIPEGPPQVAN
UniProt P06865: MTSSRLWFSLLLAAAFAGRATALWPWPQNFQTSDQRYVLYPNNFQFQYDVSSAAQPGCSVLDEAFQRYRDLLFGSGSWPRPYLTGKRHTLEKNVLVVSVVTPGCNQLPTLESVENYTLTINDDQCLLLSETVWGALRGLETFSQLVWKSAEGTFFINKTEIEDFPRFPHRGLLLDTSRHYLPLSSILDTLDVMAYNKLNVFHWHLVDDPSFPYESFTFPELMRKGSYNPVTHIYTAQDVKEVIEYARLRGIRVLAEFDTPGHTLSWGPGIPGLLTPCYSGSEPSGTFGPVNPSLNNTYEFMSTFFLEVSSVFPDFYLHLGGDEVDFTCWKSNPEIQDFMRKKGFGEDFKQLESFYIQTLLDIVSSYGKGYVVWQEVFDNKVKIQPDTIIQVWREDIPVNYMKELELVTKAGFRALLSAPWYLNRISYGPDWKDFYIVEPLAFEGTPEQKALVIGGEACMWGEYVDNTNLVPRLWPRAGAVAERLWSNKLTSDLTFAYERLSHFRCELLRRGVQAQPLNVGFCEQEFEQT
UniProt Q16774: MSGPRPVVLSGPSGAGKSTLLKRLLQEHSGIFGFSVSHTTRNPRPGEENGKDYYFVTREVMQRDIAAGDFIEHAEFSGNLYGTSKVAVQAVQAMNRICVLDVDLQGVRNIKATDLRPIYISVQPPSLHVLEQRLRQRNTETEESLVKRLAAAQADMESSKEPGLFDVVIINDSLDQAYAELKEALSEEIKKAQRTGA
UniProt P30711: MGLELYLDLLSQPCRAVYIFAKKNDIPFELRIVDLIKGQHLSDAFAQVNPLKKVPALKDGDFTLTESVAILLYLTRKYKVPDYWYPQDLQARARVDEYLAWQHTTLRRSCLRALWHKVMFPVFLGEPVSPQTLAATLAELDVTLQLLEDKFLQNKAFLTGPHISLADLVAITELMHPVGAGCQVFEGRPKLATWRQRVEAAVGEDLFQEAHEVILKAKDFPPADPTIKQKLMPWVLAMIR
UniProt P02100: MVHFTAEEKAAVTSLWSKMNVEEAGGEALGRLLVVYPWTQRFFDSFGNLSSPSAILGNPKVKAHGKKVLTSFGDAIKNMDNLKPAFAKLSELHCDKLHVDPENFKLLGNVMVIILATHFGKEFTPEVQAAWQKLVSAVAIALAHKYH
UniProt Q92759: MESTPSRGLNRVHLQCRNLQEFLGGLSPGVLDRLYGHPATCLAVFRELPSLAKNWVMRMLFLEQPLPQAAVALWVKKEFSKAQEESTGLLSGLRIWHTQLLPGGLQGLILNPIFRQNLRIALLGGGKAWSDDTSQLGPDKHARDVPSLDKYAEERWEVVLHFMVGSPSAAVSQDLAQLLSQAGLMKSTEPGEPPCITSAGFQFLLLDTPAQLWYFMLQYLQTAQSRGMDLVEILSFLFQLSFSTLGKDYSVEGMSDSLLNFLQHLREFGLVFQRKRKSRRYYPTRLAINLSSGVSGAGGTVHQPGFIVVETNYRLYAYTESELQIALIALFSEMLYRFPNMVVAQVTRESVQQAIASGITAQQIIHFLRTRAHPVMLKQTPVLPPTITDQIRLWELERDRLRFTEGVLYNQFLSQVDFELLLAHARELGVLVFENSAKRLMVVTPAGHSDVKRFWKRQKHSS
UniProt Q9P0R6: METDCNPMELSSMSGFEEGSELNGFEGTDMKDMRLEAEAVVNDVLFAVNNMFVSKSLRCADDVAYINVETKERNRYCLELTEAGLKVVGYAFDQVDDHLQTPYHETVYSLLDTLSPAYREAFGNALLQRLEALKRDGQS
UniProt Q9BT25: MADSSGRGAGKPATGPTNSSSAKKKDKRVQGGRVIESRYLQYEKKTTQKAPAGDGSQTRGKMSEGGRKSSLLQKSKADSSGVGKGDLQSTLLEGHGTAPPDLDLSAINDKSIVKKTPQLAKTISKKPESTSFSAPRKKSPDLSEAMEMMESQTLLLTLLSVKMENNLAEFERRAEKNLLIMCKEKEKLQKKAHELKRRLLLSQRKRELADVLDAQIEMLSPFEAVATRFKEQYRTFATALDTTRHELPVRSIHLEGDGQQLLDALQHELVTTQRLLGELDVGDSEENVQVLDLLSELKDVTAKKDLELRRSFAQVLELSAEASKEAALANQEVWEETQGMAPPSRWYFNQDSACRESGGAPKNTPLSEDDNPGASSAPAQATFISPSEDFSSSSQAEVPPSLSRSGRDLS
UniProt P42357: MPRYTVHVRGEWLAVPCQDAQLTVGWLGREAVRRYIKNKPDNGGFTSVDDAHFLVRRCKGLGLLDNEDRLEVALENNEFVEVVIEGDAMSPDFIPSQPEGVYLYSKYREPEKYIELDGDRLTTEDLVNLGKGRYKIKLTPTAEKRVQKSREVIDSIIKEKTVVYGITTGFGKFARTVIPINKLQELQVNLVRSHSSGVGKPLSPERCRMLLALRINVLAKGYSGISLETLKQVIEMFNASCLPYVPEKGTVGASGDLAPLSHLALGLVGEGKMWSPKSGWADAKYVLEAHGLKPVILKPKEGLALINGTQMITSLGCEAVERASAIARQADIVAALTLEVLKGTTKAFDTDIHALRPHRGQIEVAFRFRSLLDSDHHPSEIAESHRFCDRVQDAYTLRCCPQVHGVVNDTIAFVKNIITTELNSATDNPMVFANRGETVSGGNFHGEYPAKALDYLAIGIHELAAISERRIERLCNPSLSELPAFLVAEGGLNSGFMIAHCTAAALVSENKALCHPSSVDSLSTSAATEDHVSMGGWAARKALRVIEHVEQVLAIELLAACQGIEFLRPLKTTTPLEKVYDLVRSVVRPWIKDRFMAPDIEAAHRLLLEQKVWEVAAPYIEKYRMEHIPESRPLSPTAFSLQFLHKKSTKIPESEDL

Legend:
Assay in all cases: log2 fold change, soluble protein after heating vs DMSO (PISA); higher = thermal stabilisation; K562 cells, 10 uM, 30 min; active = over 0.2 and 3.5 SD of the protein, either way, in both replicates (recomputed)
[1] = compound: COC1=CC=C(C=C1)CN2C=CC3=C2C=C(C=C3)C(=O)NO
In short: (§1)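 K562 cells at 2×10^6 cells/mL were treated with 10 μM compound for 30 min. Aliquots were heated for 3 min across 48°C-58°C, pooled, and extracted in PBS with 0.5% NP-40 at 4°C; soluble protein was the supernatant after 21,000xg for 90 min. Soluble protein was quantified by TMTpro 16plex LC-MS/MS with channel sums equalised, and reported as log2 fold change in thermal stability against DMSO controls, with values from duplicates.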

filanesib = compound: CON(C)C(=O)N1N=C(c2cc(F)ccc2F)S[C@@]1(CCCN)c1ccccc1 [filanesib]
In short: as §1

zotarolimus = compound: CO[C@H]1C[C@@H]2CC[C@@H](C)[C@@](O)(O2)C(=O)C(=O)N2CCCC[C@H]2C(=O)O[C@H]([C@H](C)C[C@@H]2CC[C@H](n3cnnn3)[C@H](OC)C2)CC(=O)[C@H](C)/C=C(\C)[C@@H](O)[C@@H](OC)C(=O)[C@H](C)C[C@H](C)/C=C/C=C/C=C/1C [zotarolimus]
In short: as §1

idasanutlin = compound: COc1cc(C(=O)O)ccc1NC(=O)[C@@H]1N[C@@H](CC(C)(C)C)[C@](C#N)(c2ccc(Cl)cc2F)[C@H]1c1cccc(Cl)c1F [idasanutlin]
In short: as §1

alisertib = compound: COc1cc(Nc2ncc3c(n2)-c2ccc(Cl)cc2C(c2c(F)cccc2OC)=NC3)ccc1C(=O)O [alisertib]
In short: as §1

[2] = compound: COc1cc2nc(-c3cc(F)ccc3O)nc(N[C@@H]3CNC[C@H]3C(C)(C)O)c2cc1OC
In short: as §1

gefitinib = compound: COc1cc2ncnc(Nc3ccc(F)c(Cl)c3)c2cc1OCCCN1CCOCC1 [gefitinib]
In short: as §1

[3] = compound: COc1cccc2cc(-c3nc([C@H]4CC[C@H](C(=O)O)CC4)n4ncnc(N)c34)[nH]c12
In short: as §1

lapatinib = compound: CS(=O)(=O)CCNCc1ccc(-c2ccc3ncnc(Nc4ccc(OCc5cccc(F)c5)c(Cl)c4)c3c2)o1 [lapatinib]
In short: as §1

pictilisib = compound: CS(=O)(=O)N1CCN(Cc2cc3nc(-c4cccc5[nH]ncc45)nc(N4CCOCC4)c3s2)CC1 [pictilisib]
In short: as §1

Row | Target | log2 fold change [1] | log2 fold change (filanesib) | log2 fold change (zotarolimus) | log2 fold change (idasanutlin) | log2 fold change (alisertib) | log2 fold change [2] | log2 fold change (gefitinib) | log2 fold change [3] | log2 fold change (lapatinib) | log2 fold change (pictilisib)
1 | HDAC3 isoform 2 (UniProt O15379) | inactive: 0.017 | inactive: 0.048 | inactive: 0.077 | inactive: -0.025 | inactive: -0.093 | inactive: 0.04 | inactive: 0.089 | inactive: 0.009 | inactive: 0.061 | inactive: 0.022
2 | HDAC6 (UniProt Q9UBN7) | active: 0.676 | inactive: 0.006 | inactive: 0.008 | inactive: -0.055 | inactive: -0.097 | inactive: 0.028 | inactive: 0.043 | inactive: -0.027 | inactive: 0.016 | inactive: 0.062
3 | GUF1 (UniProt Q8N442) | inactive: -0.02 | inactive: 0.02 |  | inactive: -0.308 | inactive: 0.065 | inactive: 0.28 | inactive: 0.064 | inactive: 0.146 | inactive: -0.083 | inactive: 0.109
4 | GSPT2 (UniProt Q8IYD1) | inactive: -0.075 | inactive: -0.024 | inactive: -0.06 | inactive: -0.041 | inactive: 0.058 | inactive: 0.089 | inactive: -0.016 | inactive: 0.064 | inactive: 0.037 | inactive: 0.176
5 | GTF3C6 (UniProt Q969F1) | inactive: -0.095 | inactive: 0.034 | inactive: 0.162 |  | inactive: -0.249 | inactive: 0.03 | inactive: -0.102 | inactive: -0.032 | inactive: 0.043 | inactive: 0.017
6 | GTF2B (UniProt Q00403) | inactive: 0.046 | inactive: -0.018 | inactive: 0.054 | inactive: -0.085 | inactive: -0.037 | inactive: -0.001 | inactive: 0.02 | inactive: -0.006 | inactive: -0.047 | inactive: -0.025
7 | HCFC1 (UniProt P51610) | inactive: 0.02 | inactive: -0.002 |  |  | inactive: -0.008 |  | inactive: -0.088 | inactive: 0.148 |  | inactive: 0.023
8 | HAUS1 (UniProt Q96CS2) | inactive: 0.118 | inactive: 0.017 | inactive: 0.104 | inactive: -0.032 | inactive: -0.032 | inactive: -0.042 | inactive: 0.111 | inactive: -0.033 | inactive: 0.103 | inactive: -0.015
9 | HDLBP (UniProt Q00341) | inactive: -0.088 | inactive: 0.405 | inactive: 0.148 | inactive: 0.089 | inactive: 0.027 | inactive: 0 | inactive: 0.027 | inactive: -0.104 | inactive: 0.107 | inactive: -0.048
10 | H3-2 (UniProt Q5TEC6) | inactive: -0.039 | inactive: 0.358 |  |  | inactive: 0.041 | inactive: 0.326 | inactive: 0.245 | inactive: 0.163 | inactive: -0.539 | inactive: -0.035
11 | HDGFL2 (UniProt Q7Z4V5) | inactive: 0.032 | inactive: 0.056 | inactive: -0.025 | inactive: 0.012 | inactive: -0.051 | inactive: -0.013 | inactive: 0.025 | inactive: 0.04 | inactive: -0.019 | inactive: -0.004
12 | HAUS5 (UniProt O94927) | inactive: 0.12 | inactive: -0.148 |  | inactive: 0.023 | inactive: -0.105 | inactive: 0.224 | inactive: 0.1 | inactive: -0.215 | inactive: -0.093 | inactive: -0.154
13 | HEATR1 (UniProt Q9H583) | inactive: 0 | inactive: 0.033 |  | inactive: -0.118 | inactive: -0.048 | inactive: -0.146 | inactive: 0.041 | inactive: -0.111 | inactive: 0.025 | inactive: 0.095
14 | GSTP1 (UniProt P09211) | inactive: -0.033 | inactive: -0.038 | inactive: 0.004 | inactive: -0.033 | inactive: -0.003 | inactive: -0.003 | inactive: 0.021 | inactive: 0.069 | inactive: -0.032 | inactive: 0.035
15 | GSK3B isoform 2 (UniProt P49841) | inactive: 0.133 | inactive: -0.034 | inactive: 0.013 | inactive: -0.121 |  | inactive: 0.056 | inactive: -0.041 | inactive: 0.022 | inactive: -0.013 | inactive: 0.014
16 | HAGHL isoform 2 (UniProt Q6PII5) | inactive: 0.068 | inactive: -0.071 | inactive: 0.009 | inactive: 0.066 | inactive: -0.044 |  | inactive: 0.038 | inactive: -0.015 |  | 

Quoted at random: two entries already listed
Row | Target | log2 fold change [1] | log2 fold change (filanesib) | log2 fold change (zotarolimus) | log2 fold change (idasanutlin) | log2 fold change (alisertib) | log2 fold change [2] | log2 fold change (gefitinib) | log2 fold change [3] | log2 fold change (lapatinib) | log2 fold change (pictilisib)
10 | H3-2 (UniProt Q5TEC6) | inactive: -0.039 | inactive: 0.358 |  |  | inactive: 0.041 | inactive: 0.326 | inactive: 0.245 | inactive: 0.163 | inactive: -0.539 | inactive: -0.035
15 | GSK3B isoform 2 (UniProt P49841) | inactive: 0.133 | inactive: -0.034 | inactive: 0.013 | inactive: -0.121 |  | inactive: 0.056 | inactive: -0.041 | inactive: 0.022 | inactive: -0.013 | inactive: 0.014

Next results:

Row | Target | log2 fold change [1] | log2 fold change (filanesib) | log2 fold change (zotarolimus) | log2 fold change (idasanutlin) | log2 fold change (alisertib) | log2 fold change [2] | log2 fold change (gefitinib) | log2 fold change [3] | log2 fold change (lapatinib) | log2 fold change (pictilisib)
17 | HERPUD2 (UniProt Q9BSE4) | inactive: 0.02 |  | inactive: 0.126 | inactive: 0.006 |  |  |  |  |  | 
18 | HAGH (UniProt Q16775) | inactive: -0.095 | inactive: -0.052 | inactive: -0.052 | inactive: -0.045 | inactive: -0.013 | inactive: -0.045 | inactive: 0.011 | inactive: 0.055 | inactive: -0.006 | inactive: 0.018
19 | HEXIM1 (UniProt O94992) | inactive: -0.036 | inactive: 0.074 | inactive: 0.016 | inactive: 0.03 | inactive: -0.026 | inactive: 0.094 | inactive: -0.039 | inactive: 0.01 | inactive: -0.013 | inactive: 0.06
20 | H2AFX (UniProt P16104) | inactive: -0.06 | inactive: 0.393 | inactive: -0.3 | inactive: 0.484 | inactive: -0.007 | inactive: -0.136 | inactive: 0.049 | inactive: -0.361 | inactive: 0.054 | inactive: -0.215
21 | HEXA (UniProt P06865) | inactive: 0.028 | inactive: -0.066 | inactive: -0.015 | inactive: -0.012 | inactive: -0.095 | inactive: 0.01 | inactive: -0.005 | inactive: 0.035 | inactive: 0 | inactive: 0.03
22 | GUK1 isoform 2 (UniProt Q16774) | inactive: 0.215 | inactive: -0.005 | inactive: 0.022 | inactive: -0.04 | inactive: -0.048 | inactive: 0.155 | inactive: -0.05 | inactive: -0.019 | inactive: -0.001 | inactive: 0.017
23 | GTF2F1 (UniProt P35269) | inactive: 0.038 | inactive: -0.019 | inactive: -0.037 | inactive: -0.05 | inactive: -0.065 | inactive: 0.07 | inactive: 0.01 | inactive: 0.01 | inactive: -0.053 | inactive: 0.007
24 | GTF2E1 (UniProt P29083) | inactive: 0.042 | inactive: 0.01 | inactive: 0.004 | inactive: -0.032 | inactive: -0.026 | inactive: 0.06 | inactive: 0.013 | inactive: 0.012 | inactive: -0.037 | inactive: -0.002
25 | HAGHL (UniProt Q6PII5) | inactive: -0.008 | inactive: 0.042 | inactive: -0.001 |  | inactive: 0.071 | inactive: 0.055 |  | inactive: -0.07 | inactive: -0.01 | 
26 | GSTT1 (UniProt P30711) | inactive: 0.014 |  | inactive: 0.07 | inactive: 0 | inactive: -0.118 | inactive: -0.015 | inactive: 0.023 | inactive: 0.029 | inactive: 0.003 | inactive: 0.027
27 | HBE1 (UniProt P02100) | inactive: 0.035 | inactive: -0.007 | inactive: 0.056 | inactive: -0.032 | inactive: -0.077 | inactive: -0.09 | inactive: -0.013 | inactive: 0.098 | inactive: -0.04 | inactive: 0.127
28 | GTF2H4 (UniProt Q92759) |  | inactive: 0.122 | inactive: 0.084 | inactive: 0.009 | inactive: -0.153 | inactive: 0.193 | inactive: 0.096 | inactive: 0.182 | inactive: -0.018 | inactive: -0.094
29 | GSKIP (UniProt Q9P0R6) | inactive: 0.011 |  | inactive: -0.046 | inactive: -0.079 | inactive: 0.274 | inactive: -0.039 | inactive: -0.001 | inactive: -0.009 | inactive: -0.057 | inactive: 0.135
30 | HAUS8 (UniProt Q9BT25) |  |  | inactive: 0.051 | inactive: 0.171 | inactive: -0.151 | inactive: -0.18 | inactive: -0.042 | inactive: 0.11 | inactive: 0.042 | inactive: -0.184
31 | GZF1 (UniProt Q9H116) |  | inactive: -0.039 |  | inactive: 0.401 |  |  |  |  |  | 
32 | HAL (UniProt P42357) |  | inactive: -0.054 | inactive: -0.193 | inactive: 0.164 | inactive: 1.03 | inactive: 0.071 | inactive: 0.21 | inactive: -0.004 | inactive: -0.091 | 
